Data on 105 molecules can be found in the supplement of paper PMC12578635.

± gives the standard deviation of the averaged measurements. This is one part of the list. Most values come without repeats; read them as rough.

This assay relates to RAW 264.7 macrophages infected with S. aureus JE2-lux. The assay can be described thus: host macrophage viability (CellTiter-Fluor) relative to DMSO vehicle; higher = more viable host cells. The settings on record: 10 µM; treatment time 4 h; gentamicin 50 µg/ml.
`Cc1cc(N2C(=O)c3ccccc3C2C(=O)NCCC(C)C)ccc1Br` (stereo not given): the host macrophage viability was determined as 125%.
Take `CCCOc1ccc(Oc2nc(C)nc3sc(C(=O)OCC)c(C)c23)cc1`: the host macrophage viability is 118%.
To `O=C(CC1(O)C(=O)Nc2ccc(Br)cc21)c1ccccn1` (stereo not given) belongs 116 ± 16%; to `Cc1ccc(NC(=O)N(Cc2ccco2)Cc2cc3cccc(C)c3nc2Cl)cc1`, 114%.
The value for `Cc1cccn2cc(-c3ccc(NC(=O)c4ccco4)cc3)nc12` was 117%.
To `O=C(NCc1cccnc1)C(=O)NCC1OCCN1C(=O)c1ccc(Cl)cc1` (stereo not given) belongs 107%; to `O=c1[nH]c2c(s1)C(c1ccc(O)cc1)C1C3CCC(C3)C1S2` (stereo not given), 112%.
With `O=C(Cn1c2ccccc2n2c(=O)cc(-c3ccccc3)nc12)Nc1ccccc1C(F)(F)F`, the host macrophage viability came to 134%.
For `COc1cccc(C(=O)Nc2nc3ccc([N+](=O)[O-])cc3s2)c1OC`, the host macrophage viability stood at 90.4%.
To `Cc1ccc(Nc2c(C(=O)NC3CCCC3)cnc3c2c(C)nn3C)cc1` belongs 97.3%; to `O=C(Nc1ccc2c(c1)C(=O)NC2=O)c1cccc(C(F)(F)F)c1`, 122%.
On to `O=C(CC1Nc2cccc3cccc(c23)NC1=O)Nc1ccc(F)cc1` (stereo not given), for which the host macrophage viability was determined as 115%.
Regarding `CCCCN1C(=O)C(C#N)=C(C)/C(=C/Nc2ccccc2C(=O)O)C1=O`, the host macrophage viability is 122%.
To `COc1ccc(N2CCCS2(=O)=O)cc1NC(=O)c1cccc(C(F)(F)F)c1` belongs 108%.
To `CCc1ccc(-c2cc(C(=O)N/N=C(\C)c3ccncc3)[nH]n2)cc1` belongs 99.8%.
The value for `O=[N+]([O-])c1ccc2oc(SCc3nc4ccccn4c3Br)nc2c1` was 120%.
In the case of `Nc1c(C(=O)Nc2ccc(Cl)c(Cl)c2)c2ccccn2c1C(=O)c1cccs1`, the host macrophage viability worked out at 125%.
Take `CCCN1CCN(c2nn3nnnc3c3ccccc23)CC1`: the host macrophage viability was determined as 119%.
The value for `Cc1cc(N2CCN(c3ccc(O)cc3)CC2)nc(-n2nc(C)cc2C)n1` was 121%; that for `O=C1NC(=S)S/C1=C\c1nc2ccccc2[nH]1` was 102%; that for `Cc1cc(C)nc(-n2[nH]c3nccc(-c4ccc5c(c4)OCO5)c3c2=O)n1` was 122%.
To `COc1cc(NC(=O)Cn2c(=O)n3nc(-c4ccc(C)cc4)nc3c3ccccc32)cc(OC)c1` belongs 112%.
In the case of `COc1ccc(C(=O)N(Cc2ccc(Cl)cc2)c2nc3[nH]c(C)c(C)c(=O)n3n2)cc1`, the host macrophage viability came to 108%.
With `Cc1ccc(-c2nnc3ccccc3c2C(=O)Nc2cc(C)ccn2)cc1`, the host macrophage viability was 124%.
To `Cc1ccc(Cn2c(=O)c3ccccc3n3c(=S)[nH]nc23)cc1` belongs 135%; to `COCCN1C(=O)C2C(c3ccccc3O)NN(Cc3ccccc3)C2C1=O` (stereo not given), 117%.
To `C=CCN1CC(C(=O)Nc2ccc3c(C)cc(C)nc3n2)CC1=O` (stereo not given) belongs 103%; to `Cc1cccn2c(=O)c(/C=C(\C#N)C(N)=O)c(Oc3ccc(Cl)cc3)nc12`, 148%; to `CCOC(=O)CSc1ccc2nnc(-c3cccs3)n2n1`, 135%.
The value for `Cc1cc(NC(=O)CCCN2C(=O)c3cccc4cccc(c34)C2=O)n(-c2ccccc2)n1` was 119%; that for `Cc1ccc2oc(=O)c(-c3nc4ccc([N+](=O)[O-])cc4[nH]3)cc2c1` was 114%.
In the case of `COc1ccc2nc(NC(=O)Nc3ccc(C)cc3Cl)sc2c1`, the host macrophage viability was 104%.
The value for `COc1ccc(C2CC(c3cccc(NS(C)(=O)=O)c3)=NN2S(=O)(=O)c2ccc(C)cc2)cc1` (stereo not given) was 99.4%; that for `COc1ccc(-c2nc3cc(C)ccn3c2NC(=O)CCc2ccccc2)cc1` was 101%; that for `Cc1oc2ncnc(OCC(=O)NCC3CCCO3)c2c1C` (stereo not given) was 112%.
To `CCOCCCNC(=O)CCn1cnc2c(-c3ccc(C)cc3)noc2c1=O` belongs 76.3%.
The value for `O=C(CC1Nc2ccccc2NC1=O)Nc1cc(Cl)cc(Cl)c1` (stereo not given) was 119%; that for `O=C1CC(N2CCN(Cc3ccccc3)CC2)C(=O)N1` (stereo not given) was 122%; that for `COc1cccc(-c2cc3nc(C)cc(NCc4cccnc4)n3n2)c1` was 93.3%.
In the case of `Cc1ccc(C(C)C)c(OCC(=O)N/N=C2/C(=O)N(C)c3ccccc32)c1`, the host macrophage viability is 95.8%.
For `Cc1nn(C)c(C)c1CNC(=O)c1cc2n(n1)CCCN(Cc1ccc(F)cc1)C2=O`, the host macrophage viability stood at 110%.
To `COCCn1/c(=N/C(=O)c2ccc([N+](=O)[O-])s2)sc2cc(F)ccc21` belongs 104%.
The value for `CC(=O)NNc1nc(-c2ccccc2)c2cc(Cl)ccc2n1` was 113%; that for `CCN1C(=O)C(C)(C)COc2ccc(NC(=O)CCc3ccc(OC)cc3)cc21` was 117%.
The value for `COc1cccc(C(c2sc3nc(C)nn3c2O)N2CCOCC2)c1` (stereo not given) was 110 ± 7.9%.
For the molecule `COc1ccc(-c2c(C#N)c(SCC(N)=O)nc(C)c2C(=O)Nc2ccccc2)cc1OC`, the host macrophage viability was determined as 120%.
To `CCOC(=O)C1=C(c2ccccc2)OC(N)=C(C#N)C1c1ccccc1` (stereo not given) belongs 109%; to `COc1ccccc1C(=O)Nc1ccc(Nc2cc(N(C)C)nc(C)n2)cc1`, 104%.
The value for `CCc1c(C)nc(SCC(=O)N2CCCCCC2)[nH]c1=O` was 102%.
Turning to `COc1ccc(CNC(=O)C2CCCN(c3nccc4c(C)nn(C)c34)C2)c(OC)c1` (stereo not given), the host macrophage viability is 112%.
For the molecule `CCOC(=O)c1ccc(NC(=O)c2ccc(SCCN3CCOCC3)nc2)cc1`, the host macrophage viability turned out to be 83.7%.
To `c1ccc2c(c1)c(NCc1ccncc1)nn1cnnc21` belongs 107%; to `Cc1cc2c(c(=O)[nH]1)C(c1ccccc1)C(C#N)=C(N)O2` (stereo not given), 115%; to `Cc1ccc(-c2noc(-c3cnn4c(C)c(Cc5ccccc5C)c(C)nc34)n2)cc1`, 148%.
The value for `CCOc1ccc(-c2c(C)nn3c(C)c(C(=O)NCc4cccnc4)cnc23)cc1OCC` was 112%; that for `CCOc1ccc(-c2noc(CCn3c(=O)[nH]c4ccccc4c3=O)n2)cc1OC` was 95.4%.
With `O=C(c1ccc(Cl)cc1)C1CCN(C(=O)Nc2ccc(F)cc2F)CC1`, the host macrophage viability was found to be 113%.
The value for `O=C(CCOc1ccccc1)Nc1nnc(-c2cc(Cl)ccc2Cl)o1` was 111%; that for `Cc1ccc(NC(=O)CC2SC3=NCCN3C2=O)cc1` (stereo not given) was 105%.
To `COc1ccccc1N1CCN(c2cc(C)nc3nc(Cc4cccc(F)c4)nn23)CC1` belongs 122%; to `Cc1ccc2nc(NCc3ccccc3)c(/C=N/c3cccc(Cl)c3)c(=O)n2c1`, 123%.
In the case of `Cc1c(C(=O)O)sc2ncnc(NCCc3ccsc3)c12`, the host macrophage viability was determined as 125%.
To `CCc1cc(-c2csc(S(=O)(=O)N(Cc3ccccc3)C(C)C)c2)on1` belongs 85.5%; to `COC(=O)c1ccc(CSC(=S)NC2CCS(=O)(=O)C2)cc1` (stereo not given), 110%; to `O=C(Nc1cccc(Cl)c1)C1CCN(C(=O)NC2CCCCC2)CC1`, 118%.
As to `COc1cc(C)c(CNC(=O)c2c(-c3ccncc3)noc2C)cc1C(C)C`, the host macrophage viability worked out at 112%.
To `O=C(Oc1ccc2ccc(=O)oc2c1)c1ccc(Cl)cc1` belongs 149 ± 4.2%; to `COc1ccc(OC)c2[nH]c(=O)c(CCNC(=O)/C=C\c3ccccc3)cc12`, 125%; to `C=CCn1c(SCC(=O)N2CCN(CCO)CC2)nc2sc3c(c2c1=O)CCC3`, 118 ± 2.7%.
The value for `Cc1cccn2c(=O)c(C=O)c(N3CCCC3)nc12` was 126%.
As for `O=c1[nH]c2ccc(S(=O)(=O)N3CCc4nc(N5CCCCC5)ncc4C3)cc2o1`, the host macrophage viability amounted to 114%.
On to `O=C(Cn1cc(C(=O)c2ccccc2)c(=O)c2cc3c(cc21)OCCO3)Nc1ccc2c(c1)OCO2`, for which the host macrophage viability was 88.9%.
To `COc1ccc(Cl)c2sc(N(Cc3cccnc3)C(=O)c3c(F)cccc3F)nc12` belongs 104%; to `O=C(O)c1ccccc1SC1CC(=O)N(c2ccc([N+](=O)[O-])cc2)C1=O` (stereo not given), 127%.
In the case of `N=c1oc2c3c4c(cc2cc1C(=O)Nc1cccc(Cl)c1Cl)CCCN4CCC3`, the host macrophage viability was 141%.
`NC(=O)c1nc(Nc2ccccc2)sc1NC(=O)C1CCCCC1`: the host macrophage viability is 91.7%.
The value for `O=C(CSc1nc(-c2ccc3c(c2)OCO3)nc2cc(=O)[nH]n12)NCCCc1ccccc1` was 126%.
Turning to `COc1ccc(/C=N/Nc2ncnc3[nH]cnc23)c(OC)c1`, the host macrophage viability is 103%.
To `O=C(O)c1cc(Nc2nc(-c3ccccc3)c3cc(Br)ccc3n2)ccc1O` belongs 113%; to `Cc1oc(-c2ccno2)cc1S(=O)(=O)NCC1CCCO1` (stereo not given), 126%.
To `O=C(CSc1nncc(=O)[nH]1)Nc1cccc(Cl)c1Cl` belongs 110%; to `CCCn1cnc2cc(-c3noc(CNC(=O)Cc4ccc(Cl)cc4)n3)ccc21`, 110%.
Turning to `CCc1ccc(N2C(=O)CC(Sc3ncccc3C(=O)O)C2=O)cc1` (stereo not given), the host macrophage viability was 125%.
The value for `Cc1occc1-c1nnc2sc(-c3ccc(-c4cccc([N+](=O)[O-])c4)o3)nn12` was 122%.
The value for `Cc1ccc(CNC(=O)N2CCC(n3cnc4cccnc43)CC2)cc1` was 103%.
In the case of `COc1ccccc1NC(=O)N(CC(=O)Nc1sc(C)c(C)c1C(N)=O)C1CCCC1`, the host macrophage viability was determined as 115%.
In the case of `COc1ccc(C(=O)N2CN(CCCn3ccnc3)Cc3c2sc(C)c3C)cc1`, the host macrophage viability came out at 124%.
To `CCOC(=O)C1CCN(c2nnc(N3CCCCC3)c3ccccc23)CC1` belongs 128%; to `O=C(CSc1ncccc1C(=O)O)Nc1nc2c(s1)CCCC2`, 112%.
To `O=c1[nH]ncc(N/N=C\c2ccc(O)cc2)c1Cl` belongs 123%; to `Cc1nc2ccn(Cc3ccccc3)c(=O)c2cc1C(=O)NC1CCCC1`, 125%.
To `O=C(Cn1ccn(-c2ccc(Br)cc2)c(=O)c1=O)Nc1ccccc1Cl` belongs 123%.
In the case of `COC(=O)c1ccc(C2NC(=O)NC(O)(C(F)(F)F)C2C(=O)c2ccc(F)cc2)cc1` (stereo not given), the host macrophage viability worked out at 113%.
The value for `O=C(Nc1ccccc1-c1ccccc1)C1CCN(c2cnccn2)CC1` was 104%.
For `O=C1Nc2c(Br)cc(Br)cc2/C1=N\NC(=O)c1ccco1`, the host macrophage viability was determined as 86.6%.
Regarding `NC(=O)c1ccc(NC(=O)CSc2nc3ccccc3o2)cc1`, the host macrophage viability came to 103%.
The value for `Cc1ccccc1NC(=O)Cn1cc(S(=O)(=O)c2ccc(F)cc2)c(=O)c2cc3c(cc21)OCO3` was 102%.
To `COc1ccc(Nc2nnc(Cc3ccc(F)cc3)c(=O)[nH]2)cc1OC` belongs 113%; to `Cc1cccc(NC(=O)CN2CCC3(CC2)NC(=O)c2ccccc2O3)n1`, 126%.
The value for `O=C(CN1CCc2nc(N3CCCC3)[nH]c(=O)c2C1)Nc1cccc(F)c1` was 146%.
For the molecule `COc1ccc(CC(=O)NCCc2cn3ccc(C)cc3n2)cc1`, the host macrophage viability came out at 126%.
To `Cn1c(Sc2ccc3ccccc3n2)nc2c1c(=O)[nH]c(=O)n2C` belongs 132%.
The value for `CC1CCN(C(=O)CSc2ccc3nnc(-c4cccc(F)c4)n3n2)CC1` was 101 ± 11%; that for `C=CCc1cccc2cc(C(N)=O)/c(=N\c3ccc(OC)cc3)oc12` was 105%.
The value for `O=C(CSc1nnc2c(n1)[nH]c1ccc(Br)cc12)NCc1ccccc1` was 121%.
